Taken from: PubChem BioAssay AID1259308 (NCATS, 2017)

Screen: 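Candidate targets for better recombinant protein yield in mammalian cells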 (primary screen)
Cell system: human HEK293 embryonic kidney cells stably expressing firefly luciferase (HEK-CMV-Luc2-Hygro)
Knock-down reagent: single siRNA against human genes, 0.8 pmol siRNA per well
Timing: 72 h
Measurement: 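Reporter luminescence and viable-cell signal on separate replicate plates, given as percent of non-targeting control and median/MAD z-scores, plus per-cell luciferase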
Scale: total luciferase, z-score and total luciferase, % of control: higher = more reporter protein produced; luciferase per cell, z-score: higher = more reporter output per viable cell; viable cells, % of control: higher = more viable cells
Hit rule: 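An siRNA counts as active if its total luciferase robust z-score exceeds 3; genes with two or more such siRNAs out of three were retested with fresh siRNAs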
Meaning of the calls: active = raised luciferase; inactive = no rise
Shown is a random part of about 59,000 reagents tested. In the full data, about 1,510 (2.6%) got an active call. 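Calls use total luciferase alone and ignore viability, so some active siRNAs may act by altering cell number.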 A number with no mark means an inactive call. The numbers tell different reagents against one gene apart. No sequences are given here.

Target gene | reagent no. | total luciferase, z-score | total luciferase, % of control | luciferase per cell, z-score | viable cells, % of control
ATP6V0E2-AS1 (ATP6V0E2 antisense RNA 1) | 1 | 0.932 | 100 | 0.882 | 89
ATP6V0E2-AS1 (ATP6V0E2 antisense RNA 1) | 2 | -0.747 | 67 | -0.0609 | 76.1
ATP6V0E2-AS1 (ATP6V0E2 antisense RNA 1) | 3 | 3.77 (active) | 157 | 2 | 104
FXYD6 (FXYD domain containing ion transport regulator 6) | 1 | 0.514 | 92.1 | 0.656 | 86.6
FXYD6 (FXYD domain containing ion transport regulator 6) | 2 | -1.66 | 48.9 | -0.889 | 69
FXYD6 (FXYD domain containing ion transport regulator 6) | 3 | -0.768 | 66.6 | -1.26 | 104
KLK9 (kallikrein related peptidase 9) | 1 | -0.121 | 79.5 | 0.459 | 78.7
KLK9 (kallikrein related peptidase 9) | 2 | 0.0213 | 82.3 | 0.359 | 83.7
KLK9 (kallikrein related peptidase 9) | 3 | 1.49 | 112 | 1.18 | 91.4
SEC62 (SEC62 preprotein translocation factor) | 1 | 0.546 | 92.7 | 0.295 | 95.9
SEC62 (SEC62 preprotein translocation factor) | 2 | 0.677 | 95.4 | 1.06 | 80.5
SEC62 (SEC62 preprotein translocation factor) | 3 | 1.26 | 107 | 1.83 | 73.7
ATP6V1B2 (ATPase H+ transporting V1 subunit B2) | 1 | 0.627 | 94.4 | 0.365 | 95.8
ATP6V1B2 (ATPase H+ transporting V1 subunit B2) | 2 | 0.501 | 91.9 | -0.281 | 111
ATP6V1B2 (ATPase H+ transporting V1 subunit B2) | 3 | 0.146 | 84.8 | -0.244 | 101
GPSM3 (G protein signaling modulator 3) | 1 | 0.947 | 101 | 1.63 | 73.4
GPSM3 (G protein signaling modulator 3) | 2 | -1.92 | 43.7 | -2.84 | 103
GPSM3 (G protein signaling modulator 3) | 3 | 0.0262 | 82.4 | -0.174 | 96.4
SEPTIN6 (septin 6) | 1 | 0.00591 | 82 | 0.61 | 78
SEPTIN6 (septin 6) | 2 | 1.5 | 112 | 3.75 | 46.5
SEPTIN6 (septin 6) | 3 | -0.84 | 65.2 | -0.827 | 90.5
PLCL2 (phospholipase C like 2) | 1 | -0.21 | 77.7 | -0.631 | 103
PLCL2 (phospholipase C like 2) | 2 | -0.0179 | 81.5 | 0.571 | 78.4
PLCL2 (phospholipase C like 2) | 3 | -2.1 | 40.1 | -2.64 | 89.8
TLX1 (T cell leukemia homeobox 1) | 1 | 0.63 | 94.4 | 0.138 | 102
TLX1 (T cell leukemia homeobox 1) | 2 | -2.09 | 40.3 | -2.7 | 91.7
TLX1 (T cell leukemia homeobox 1) | 3 | 1.35 | 109 | 1.38 | 84.5
NKX2-3 (NK2 homeobox 3) | 1 | -0.29 | 76.1 | 0.389 | 76.8
NKX2-3 (NK2 homeobox 3) | 2 | -0.391 | 74.1 | 0.23 | 77.9
NKX2-3 (NK2 homeobox 3) | 3 | -0.136 | 79.2 | -0.146 | 92
SLC13A4 | 1 | 3.05 (active) | 143 | 2.59 | 80.6
SLC13A4 | 2 | 0.0378 | 82.6 | 0.436 | 82.3
SLC13A4 | 3 | -2.18 | 38.4 | -2.75 | 88.5
SH2D6 (SH2 domain containing 6) | 1 | -1.04 | 61.3 | -0.784 | 84.2
SH2D6 (SH2 domain containing 6) | 2 | 1.79 | 118 | 1.68 | 84.5
SH2D6 (SH2 domain containing 6) | 3 | -0.476 | 72.4 | 0.41 | 72.6
CPSF2 (cleavage and polyadenylation specific factor 2) | 1 | -0.0615 | 80.7 | 0.195 | 85.6
CPSF2 (cleavage and polyadenylation specific factor 2) | 2 | -2.32 | 35.7 | -3.03 | 88.7
CPSF2 (cleavage and polyadenylation specific factor 2) | 3 | -2.37 | 34.8 | -3.17 | 89.5
DNAJB14 (DnaJ heat shock protein family (Hsp40) member B14) | 1 | 0.939 | 101 | 1.2 | 82
DNAJB14 (DnaJ heat shock protein family (Hsp40) member B14) | 2 | 0.0906 | 83.7 | -0.518 | 107
DNAJB14 (DnaJ heat shock protein family (Hsp40) member B14) | 3 | -0.601 | 69.9 | 0.242 | 73.3
SKP1P2 (SKP1 pseudogene 2) | 1 | -1.04 | 61.2 | -0.603 | 80.2
SKP1P2 (SKP1 pseudogene 2) | 2 | 2.22 | 126 | 1.88 | 85.8
SKP1P2 (SKP1 pseudogene 2) | 3 | -3.03 | 21.7 | -1.76 | 38.6
SPATA31D1 (SPATA31 subfamily D member 1) | 1 | 0.114 | 84.2 | 1.48 | 63.8
SPATA31D1 (SPATA31 subfamily D member 1) | 2 | -0.0157 | 81.6 | -0.476 | 103
SPATA31D1 (SPATA31 subfamily D member 1) | 3 | -0.189 | 78.1 | -1.1 | 117
CFAP300 (cilia and flagella associated protein 300) | 1 | -1.26 | 56.9 | -0.535 | 73.2
CFAP300 (cilia and flagella associated protein 300) | 2 | -0.427 | 73.4 | -0.663 | 97.7
CFAP300 (cilia and flagella associated protein 300) | 3 | 1.09 | 104 | 2.17 | 65.4
GTF2E1 (general transcription factor IIE subunit 1) | 1 | -0.367 | 74.6 | -0.489 | 94.8
GTF2E1 (general transcription factor IIE subunit 1) | 2 | 2.52 | 132 | 2.78 | 70.9
GTF2E1 (general transcription factor IIE subunit 1) | 3 | 3.3 (active) | 147 | 2.76 | 79.8
MRGPRG-AS1 (MRGPRG antisense RNA 1) | 1 | -0.2 | 77.9 | -0.596 | 102
MRGPRG-AS1 (MRGPRG antisense RNA 1) | 2 | 0.424 | 90.3 | 0.325 | 92.7
MRGPRG-AS1 (MRGPRG antisense RNA 1) | 3 | -0.115 | 79.6 | 0.22 | 84
VIRMA (vir like m6A methyltransferase associated) | 1 | -1.47 | 52.6 | -1.9 | 97
VIRMA (vir like m6A methyltransferase associated) | 2 | -0.209 | 77.7 | -0.305 | 94.1
VIRMA (vir like m6A methyltransferase associated) | 3 | -1.96 | 43 | -2.61 | 95.6
GDAP1L1 | 1 | -0.526 | 71.4 | -1.06 | 106
GDAP1L1 | 2 | -0.606 | 69.8 | -0.47 | 88.3
GDAP1L1 | 3 | 0.191 | 85.7 | -0.049 | 97
POLDIP2 (DNA polymerase delta interacting protein 2) | 1 | -1.67 | 48.6 | -1.23 | 75.1
POLDIP2 (DNA polymerase delta interacting protein 2) | 2 | 0.653 | 94.9 | 0.49 | 93.2
POLDIP2 (DNA polymerase delta interacting protein 2) | 3 | -0.62 | 69.6 | -0.145 | 80.8
FOXN2 (forkhead box N2) | 1 | 0.102 | 83.9 | -0.552 | 108
FOXN2 (forkhead box N2) | 2 | 0.288 | 87.6 | -0.0665 | 99.6
FOXN2 (forkhead box N2) | 3 | -1.6 | 50 | -1.05 | 73.7
EMSY (EMSY transcriptional repressor, BRCA2 interacting) | 1 | 1.78 | 117 | 1.05 | 99.4
EMSY (EMSY transcriptional repressor, BRCA2 interacting) | 2 | 0.695 | 95.7 | 0.705 | 88.8
EMSY (EMSY transcriptional repressor, BRCA2 interacting) | 3 | 1.7 | 116 | 1.55 | 85.9
MRPL14 (mitochondrial ribosomal protein L14) | 1 | -0.282 | 76.3 | -0.337 | 93.2
MRPL14 (mitochondrial ribosomal protein L14) | 2 | -1.26 | 56.9 | -1.28 | 89.1
MRPL14 (mitochondrial ribosomal protein L14) | 3 | 0.108 | 84 | 0.179 | 89.6

Look-ups from the list.
Value for MRGPRG-AS1 (MRGPRG antisense RNA 1) #2 in “viable cells, % of control”: 92.7
Under “total luciferase, % of control”, GDAP1L1 #1 has 71.4
FOXN2 (forkhead box N2) #2, luciferase per cell, z-score = -0.0665
For “luciferase per cell, z-score”, ATP6V0E2-AS1 (ATP6V0E2 antisense RNA 1) #2 reads -0.0609
Entry for PLCL2 (phospholipase C like 2) #3 in “total luciferase, z-score”: -2.1
MRPL14 (mitochondrial ribosomal protein L14) #1, total luciferase, % of control: 76.3
